Measurements: PubChem BioAssay AID540276 (National Center for Advancing Translational Sciences (NCATS), 2011)
Screen size: about 300,000 compounds; about 5,400 (1.8%) were called active. This list was built around the results that the source calls inconclusive (neither active nor inactive); the mix of calls is not that of the screen. The call rests on the fitted dose curve; tested in HEK293 cells. Where the call is inconclusive, the potency comes from a doubtful curve fit.

assay: qHTS for inhibitors of binding or entry into cells for Marburg Virus; details: Marburg virus pseudotyped entry inhibition, cell reporter; activity change, negative = inhibition: at 37.8 µM (top of the series) unless noted
On the % scale 0 is the no-effect control and ±100 the full control effect; potency means the concentration at half of the fitted maximal effect.

| Compound | activity change, negative = inhibition | Potency |
| --- | --- | --- |
| Cc1cccc(C(=O)NCC(=O)NC2CCC(C)CC2)c1 (stereo not given) | inactive: -1.53% | – |
| Fc1ccc2c(c1)C(c1ccncc1)=NNC(c1cccnc1)=N2 | – | inconclusive: 0.58 µM [inhibitor, partial curve, poor fit] |
| CCCOc1ccc(C(C(=O)OCCN(CC)CC)c2ccccc2)cc1 (stereo not given) | – | inconclusive: 3.55 µM [activator, partial curve, poor fit] |
| Cc1ccc(Cl)cc1N1CCN(C(=O)c2ccc(CS(=O)(=O)c3ccc(Br)cc3)o2)CC1 | – | inconclusive: 2.51 µM [activator, partial curve, poor fit] |
| N=C1C(c2nc(-c3ccc(Cl)cc3)cs2)=C(O)CN1CCCN1CCOCC1 | – | inconclusive: 35.5 µM [inhibitor, single point] |
| Cc1ccc(C(=O)NC(=S)Nc2ccc(S(=O)(=O)N3CCN(C)CC3)cc2)cc1 | – | inconclusive: 14.1 µM [inhibitor, single point] |
| COc1ccc(C(=O)NCc2ccncc2)cc1OC | – | inconclusive: 35.5 µM [activator, single point] |
| CCOc1cccc(/C=N/NC(=O)c2ccc3c(c2)OCCO3)c1O | – | inconclusive: 7.08 µM [inhibitor, full curve, poor fit] |
| O=C(Oc1c(Cl)cc(Cl)c2cccnc12)c1cccc([N+](=O)[O-])c1 | – | inconclusive: 14.1 µM [inhibitor, single point] |
| CCCCCC(=O)Nc1ccc(S(=O)(=O)Nc2nccnc2OC)cc1 | inactive: 4.85% | – |
| COc1cccc(-c2cc(C(F)(F)F)n3ncc(C(=O)O)c3n2)c1 | inactive: -2.96% | – |
| Fc1cc(F)c2nc(Nc3nc4cc5c(cc4s3)OCO5)sc2c1 | – | inconclusive: 1.58 µM [activator, partial curve, poor fit] |
| CCn1c2ccccc2c2cc(NC(=O)COC(=O)c3ccc(NC(=O)CC#N)cc3)ccc21 | inactive: 0.398% | – |
| Cc1ccc(C(=O)Nc2nc(=O)n(C(=O)c3ccccc3Cl)s2)cc1 | – | inconclusive: 10 µM [activator, partial curve, poor fit] |
| CCn1ccnc1CN1CCCCC1C(=O)Nc1ccc(Oc2cccnc2)cc1 (stereo not given) | – | inconclusive: 17.8 µM [inhibitor, single point] |
| COc1ccc(NC(=O)Cc2ccc(Cl)cc2Cl)cn1 | inactive: 6.87% [at 46.1 µM] | – |
| CCCCOc1ccc(CN(C)c2ncnc(N)n2)cc1 | – | inactive |
| COC(=O)CNC(=O)c1c(C)cc(=O)oc1C | – | inactive |
| COc1ccc(CCNC(=O)c2cc3c(-c4ccc(OC)c(OC)c4)nn(C)c3s2)cc1OC | – | inconclusive: 12.6 µM [inhibitor, single point] |
| CCOC(=O)/C(=N\Nc1ccccc1Cl)N1CCN(C)CC1 | – | inconclusive: 5.01 µM [inhibitor, partial curve, poor fit] |
| N#CCSc1n[nH]c2nc3c(c(=O)n12)C1(CCCCC1)Cc1ccccc1-3 | – | inconclusive: 10 µM [inhibitor, partial curve] |
| CC(=O)c1ccc(Oc2ccc(C(=O)c3ccc(C)c(C)c3)cc2[N+](=O)[O-])cc1 | – | inconclusive: 0.398 µM [inhibitor, partial curve, poor fit] |
| CC(C)CC1C(=O)N(Cc2cn(CCC3OCCO3)nn2)CCS(=O)(=O)N1Cc1ccc(-c2ccncc2)cc1 (stereo not given) | – | inconclusive: 0.0007 µM [activator, full curve, poor fit] |
| O=C(NCc1ccccc1)c1ccc(NC(=O)c2ccccc2F)cc1 | – | inconclusive: 20 µM [inhibitor, partial curve, poor fit] |

No new results follow: entries from further up.

| Compound | activity change, negative = inhibition | Potency |
| --- | --- | --- |
| Cc1ccc(Cl)cc1N1CCN(C(=O)c2ccc(CS(=O)(=O)c3ccc(Br)cc3)o2)CC1 | – | inconclusive: 2.51 µM [activator, partial curve, poor fit] |
| N=C1C(c2nc(-c3ccc(Cl)cc3)cs2)=C(O)CN1CCCN1CCOCC1 | – | inconclusive: 35.5 µM [inhibitor, single point] |

Remaining list, next part:

| Compound | activity change, negative = inhibition | Potency |
| --- | --- | --- |
| Cc1ccc(SCCC(=O)N2CCOCC2)cc1 | – | inconclusive: 23.1 µM [activator, single point] |
| Cc1ccc(CSc2nnc(CCCCCNC(=O)OC(C)(C)C)o2)cc1 | – | inconclusive: 11.2 µM [inhibitor, partial curve, poor fit] |
| O=C(COC(=O)c1ccc(Br)cc1)NCCC1=CCCCC1 | inactive: -10% [at 46.1 µM] | – |
| Cc1ccc(NC(=O)CSC2=C(C#N)C(c3ccc4c(c3)OCO4)C3=C(CCCC3=O)N2)c(C)c1 (stereo not given) | – | inactive |
| Cc1cccc(N2CCN(C(=O)CNC(=O)c3cccc([N+](=O)[O-])c3)CC2)c1C | – | inconclusive: 35.5 µM [inhibitor, single point] |
| COCCn1c(SCC(=O)Nc2cccc(C)c2C)nc2c(oc3ccccc32)c1=O | inactive: -4.64% [at 46.1 µM] | – |
| O=C(COC(=O)c1cc(=O)[nH]c2ccccc12)Nc1ccc(Cl)c(S(=O)(=O)N2CCOCC2)c1 | – | inconclusive: 0.282 µM [activator, partial curve, poor fit] |
| CCCc1cc(=O)n2[nH]c(NCc3ccc(OC)cc3)nc2n1 | inconclusive: 38.4% [activator] [at 46.1 µM] | – |
| COc1ccc(C(=O)Nc2ccccc2)cc1S(=O)(=O)NCc1ccco1 | – | inconclusive: 10 µM [inhibitor, partial curve, poor fit] |
| CC(=O)Nc1ccccc1C(=O)C(=O)Nc1ccc(C)c(F)c1 | – | inconclusive: 6.51 µM [activator, single point] |
| c1cnc(Sc2ccc3nnnn3n2)nc1 | inactive: -26.2% [at 46.1 µM] | – |
| Cc1ccc(NC(=O)c2ccc(Br)o2)cc1S(=O)(=O)N(C)C | – | inconclusive: 3.55 µM [activator, single point] |
| Cc1ccc2nc(C3CCN(C(=O)NCc4ccccc4)CC3)[nH]c2c1 | inactive: 10.7% | – |
| CCC(C)C(=O)N1c2ccccc2C(=C2SC(C(=O)OC)=C(C(=O)OC)S2)C(=S)C1(C)C (stereo not given) | – | inconclusive: 15.8 µM [inhibitor, partial curve, poor fit] |
| COc1cc(NC(=O)Nc2cccc([N+](=O)[O-])c2)cc(OC)c1 | inactive: -20.7% [at 46.1 µM] | – |
| CC1(C)CC(=O)C(C=NC2CCCCC2)=C(O)C1 | inactive: -6.13% | – |
| Cn1cnnc1SCC(=O)NC1CCCN(Cc2ccc(Cl)cc2)C1 (stereo not given) | – | inconclusive: 22.4 µM [activator, single point] |
| Cc1ccc(C)c2c1cc(C)c1nnc(SCC(=O)Nc3nc4c(s3)CCCC4)n12 | – | inconclusive: 35.5 µM [inhibitor, partial curve, poor fit] |
| Cc1cccc2cc(CN(Cc3ccco3)C(c3nnnn3CCc3ccccc3)C(C)C)c(=O)[nH]c12 (stereo not given) | – | inconclusive: 10 µM [inhibitor, partial curve, poor fit] |
| CCC(=O)Nc1nc2ccc(S(C)(=O)=O)cc2s1 | inactive: -39.9% [at 46.1 µM] | – |
| COc1cccc(Oc2ccc(N/C=C/C(=O)C(C)(C)C)cc2)c1 | – | inconclusive: 8.91 µM [inhibitor, partial curve, poor fit] |
| CN(C(=O)COC(=O)C1=COCCO1)C1(C#N)CCCCC1 | – | inconclusive: 2.82 µM [inhibitor, single point] |
| COc1cccc(NC(=O)c2ccc3snnc3c2)c1 | inactive: -13.6% | – |
| CC(=O)Nc1cc(F)c2c(c1F)Cc1cc(F)ccc1-2 | – | inconclusive: 7.94 µM [activator, partial curve, poor fit] |

| Compound | activity change, negative = inhibition | Potency |
| --- | --- | --- |
| CCC(=O)N1CCc2cc(S(=O)(=O)NCCN3CCC(C)CC3)ccc21 | – | inconclusive: 5.62 µM [inhibitor, single point] |
| CSc1nc2nc(-c3cccs3)cc(C(F)(F)F)c2c(=O)[nH]1 | – | inconclusive: 6.31 µM [activator, single point] |
| Cc1ccc(N(CC(=O)Nc2ccc(F)cc2F)S(=O)(=O)c2cccs2)cc1 | inactive: 11.2% [at 46.1 µM] | – |
| CN=C(Nc1ccc(Br)cc1)SC1CC(=O)N(c2ccc(OC)cc2)C1=O (stereo not given) | inactive: -21.4% [at 46.1 µM] | – |
| Nc1nc(SCC(=O)Nc2ccc(Cl)cn2)n[nH]1 | inactive: -1.14% [at 46.1 µM] | – |
| CC/C(C)=N/N1C(=O)c2ccccc2NC1(C)CC (stereo not given) | – | inconclusive: 6.31 µM [activator, single point] |
| Nc1ccc(N2CCN(c3ccc(Cl)c(Cl)c3)CC2)cc1 | inactive: 2.57% | – |
| O=C(Cn1cnc2ccccc2c1=O)Nc1ccc2c(c1)CCC2 | – | inconclusive: 29.1 µM [activator, partial curve, poor fit] |
| Cc1ccc(Nc2nc(/N=C/NO)n[nH]2)cc1C | – | inconclusive: 0.891 µM [activator, full curve, poor fit] |
| CC1=N/C(=C/c2cccnc2)C(=O)O1 | – | inconclusive: 8.91 µM [activator, partial curve, poor fit] |
| Cc1[nH][nH]c(=O)c1C(c1cc2c(cc1Br)OCO2)c1c(C)[nH][nH]c1=O | – | inconclusive: 3.55 µM [activator, single point] |
| CN(C)S(=O)(=O)N1CCC(Oc2ccc(C(=O)N3CCCCCCC3)cc2)CC1 | inactive: -6.69% | – |
| COc1ccc(CNc2ncnc3sccc23)cc1OC | inactive: -24.4% [at 46.1 µM] | – |
| CN1CCN(CC(=O)Nc2nnc(-c3cccs3)s2)CC1 | inactive: 18.1% | – |
| CCc1ccc(C(=O)NCc2ccc(Cl)cc2)cc1 | – | inconclusive: 1 µM [activator, full curve] |
| Cc1ccc(C(O)c2nc3ccccc3n2C(C)C)cc1 (stereo not given) | – | inconclusive: 0.112 µM [inhibitor, full curve, poor fit] |
| Cc1cc(C)nc(/N=C2\NC(=O)CC(C(=O)O)N2c2ccc(C)c(C)c2)n1 (stereo not given) | – | inconclusive: 6.31 µM [inhibitor, single point] |
| Cc1ccc(CSCC(=O)N(C)CC(=O)Nc2cccc(F)c2)cc1 | inactive: -2.21% [at 46.1 µM] | – |
| Cc1ccc(/C=C/C(=O)c2ccccc(=O)c2O)c(C)c1 | – | inconclusive: 1.84 µM [activator, partial curve, poor fit] |
| COc1ccc(OC)c(N(CC(=O)NCCc2ccc(OC)c(OC)c2)S(=O)(=O)c2ccccc2)c1 | inactive: -7.44% [at 46.1 µM] | – |
| COc1cc(CN2CCC(C(=O)NC3CCCC3)CC2)cc(OC)c1O | – | inactive |
| CCOC(=O)C1(CCc2ccccc2)CCN(C(=O)CCn2cncn2)CC1 | – | inconclusive: 14.1 µM [activator, partial curve, poor fit] |

Single values from the list.
activity change, negative = inhibition with CN(C)S(=O)(=O)N1CCC(Oc2ccc(C(=O)N3CCCCCCC3)cc2)CC1 is entered as inactive: -6.69%
activity change, negative = inhibition with COc1ccc(CNc2ncnc3sccc23)cc1OC is entered as inactive: -24.4% [at 46.1 µM]
Potency with CCC(=O)N1CCc2cc(S(=O)(=O)NCCN3CCC(C)CC3)ccc21 is entered as inconclusive: 5.62 µM [inhibitor, single point]
